Reference: patent publication US20190079079A1, “3-D TISSUE CULTURE BASED METHOD TO ASSESS MITOCHONDRIAL IMPAIRMENT” (INSPHERO AG, priority 2016, published 2019)

Assays:
[1] = system: 3D primary human hepatocytes microtissues (IPHH_02); assay: Seahorse XF Analyzer measurement of spare respiratory capacity (microtissue-specific respiration rate, MTSRR) after 48 h compound exposure
[2] = from Gustafsson et al; used to calculate MOS; cited from earlier work

## CCCCc1oc2ccccc2c1C(=O)c1cc(I)c(OCCN(CC)CC)c(I)c1 [Amiodarone]
[1]; High: IC50_MTSRR<0.75×IC50_CV/CYT, Low: IC50_MTSRR<IC50_CV/CYT and ≥0.75×IC50_CV/CYT, No: IC50_MTSRR≥IC50_CV/CYT (CV/CYT by CellTiter-Glo)
  Mitochondrial toxicity risk: high Mitotoxic risk
[1]; MOS below 30 = predicted toxic
  Predicted toxicity from MOS: toxic compound
[1]; read-out: IC50_MTSRR (inhibition of spare respiratory capacity), 3D primary human hepatocyte microtissues, 48 h incubation, sigmoidal dose-response curve (variable slope) of Respiratory Spare Capacity values
  IC50: 25.3 µM
[2]
  Cmax: 5.3 µM
